We go through 39 sequences from publication PMC7862700.

The list shows a part of the results, in another mix than the full data. At the low end of the ranking the order means little.

The target of the test is T1, SPDEF (UniProt O95238).
T1 sequence: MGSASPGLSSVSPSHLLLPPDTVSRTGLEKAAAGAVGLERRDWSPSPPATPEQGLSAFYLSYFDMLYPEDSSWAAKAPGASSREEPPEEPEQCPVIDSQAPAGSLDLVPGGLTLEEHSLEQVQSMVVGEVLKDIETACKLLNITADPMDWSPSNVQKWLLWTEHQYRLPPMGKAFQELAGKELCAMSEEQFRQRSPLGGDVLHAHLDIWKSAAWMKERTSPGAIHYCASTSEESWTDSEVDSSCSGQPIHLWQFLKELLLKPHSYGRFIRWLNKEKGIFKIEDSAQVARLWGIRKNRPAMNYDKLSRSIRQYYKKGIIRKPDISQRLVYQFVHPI
Put plainly: DAPPL (digital affinity profiling via proximity ligation, sequencing). As to conditions: 10 mM Tris-HCl pH 7.5, 50 mM NaCl, 1 mM DTT, 4% glycerol, room temperature, 30 min; GST-TFs on glutathione beads, 16-mer random dsDNA library, 0.1% …; high values mean tight binding; double strand, one strand shown; scale: fold enrichment (6-mer frequency, TF over GST control).
Sequence GCATGC gave a binding signal of 0.818.
The value for AGCCGT was 0.425; that for GGCAGA was 0.583.
The value for AGAGGG was 0.71; that for ATCGAG was 0.823.
The value for GGACCA was 0.781; that for GTGATA was 0.712; that for CGGTGT was 0.795.
As for GGTGGA, the binding signal came to 0.545.
As for CGGGAG, the binding signal stood at 0.219.
The value for CCAGTT was 0.582; that for TCGTAG was 0.79; that for AGAGTT was 0.74.
Under AGGGGC stands 0.695; under GACCAC, 0.931.
The value for ATAGAG was 0.933.
For GTCATC, the binding signal is 0.898.
Sequence GCGGTC had a binding signal of 0.594.
With AGTAGT, the binding signal was 0.882.
The value for GGTCGG was 0.252; that for TCAGGG was 0.707.
Under CAGTTA stands 0.811; under CGTGTG, 0.449; under ACAGAG, 0.746.
Under GGGACT stands 0.639; under GAGGTC, 0.636.
Consider GGGACA, for which the binding signal amounted to 0.709.
Under GGGGAA stands 0.63; under GCACGT, 0.77; under GGGTCT, 1.01.
The sequence GGCAGT displayed a binding signal of 0.491.
The value for GCAGTG was 0.534; that for GGGATC was 0.752; that for GAGAAG was 0.681.
Regarding AGGGAG, the binding signal was determined as 0.297.
The value for AGGTTG was 0.769; that for CCGTGG was 0.381; that for AGATCG was 0.413.
Under AGAGTC stands 0.452.
